Source: patent publication US20260184775A1 (Chugai, published 2026)
No constants are given. Whether binding was seen depends on the method and setting. Some entries that bind do so weakly or less than the wild type.

By UniProt entry, the sequences of proteins in these tests, tags left out. Where a name states a change or a piece, a line headed by the entry shows the natural chain unless it says otherwise.
UniProt P01137: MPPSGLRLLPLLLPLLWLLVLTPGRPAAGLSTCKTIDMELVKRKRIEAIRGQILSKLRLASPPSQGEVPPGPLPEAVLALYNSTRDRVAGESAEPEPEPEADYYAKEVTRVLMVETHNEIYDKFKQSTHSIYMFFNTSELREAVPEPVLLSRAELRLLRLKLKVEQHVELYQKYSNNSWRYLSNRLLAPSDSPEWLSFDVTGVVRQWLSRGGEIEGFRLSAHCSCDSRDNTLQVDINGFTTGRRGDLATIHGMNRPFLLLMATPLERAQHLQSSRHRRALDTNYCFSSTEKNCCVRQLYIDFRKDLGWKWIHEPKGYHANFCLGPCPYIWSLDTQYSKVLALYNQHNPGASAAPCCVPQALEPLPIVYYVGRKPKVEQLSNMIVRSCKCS
UniProt P04202: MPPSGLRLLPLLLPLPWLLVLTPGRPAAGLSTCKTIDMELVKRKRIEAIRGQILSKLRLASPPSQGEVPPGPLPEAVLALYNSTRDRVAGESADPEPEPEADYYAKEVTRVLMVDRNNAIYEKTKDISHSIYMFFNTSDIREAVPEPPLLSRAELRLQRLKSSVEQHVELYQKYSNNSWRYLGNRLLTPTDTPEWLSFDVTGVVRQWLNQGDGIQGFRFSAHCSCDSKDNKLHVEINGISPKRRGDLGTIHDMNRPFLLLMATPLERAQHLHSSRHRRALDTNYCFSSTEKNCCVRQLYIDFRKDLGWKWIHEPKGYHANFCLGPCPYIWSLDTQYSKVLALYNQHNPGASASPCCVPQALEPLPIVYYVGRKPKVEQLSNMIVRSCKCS

Legend:
[1] = molecular target: T1, human cell surface latent TGF-beta 1 (human, UniProt P01137 30-390); experiment: FACS on FreeStyle 293-F cells that endogenously express latent TGF-beta 1 forming LLC
T1 construct: also called cell surface human latent TGF-beta 1

[2] = molecular target: T1, human cell surface latent TGF-beta 1; experiment: FACS on FreeStyle 293-F cells, PE-labelled secondary antibody, MFI
Experimental: (§1) Anti-latent TGF-beta 1 antibodies were incubated with each cell line for 30 minutes at 4 degrees C. and washed with FACS buffer (2% FBS, 2 mM EDTA in PBS). Anti-KLH antibody (IC17) was used for a negative control antibody. Goat F(ab′)2 anti-Human IgG, Mouse ads-PE (Southern Biotech, Cat. 2043-09) or Goat F(ab′)2 anti-Mouse IgG(H+L), Human Ads-PE (Southern Biotech, Cat. 1032-09) was then added and incubated for 30 minutes at 4 degrees C. and washed with FACS buffer. Data acquisition was performed on an FACS Verse (Becton Dickinson), followed by analysis using FlowJo software (Tree Star) and GraphPad Prism software (GraphPad).

[3] = molecular target: T1, human cell surface latent TGF-beta 1; experiment: FACS on FreeStyle 293-F cells (FIG. 29B)
[4] = molecular target: T2, mouse cell surface latent TGF-beta 1 (mouse, UniProt P04202 30-390); experiment: FACS on Ba/F3 cells (FIG. 29A)
T2 construct: Endogenous latent TGF-beta 1 (forming LLC) on Ba/F3 cells, and the latent TGF-beta 1 of mouse PBMC in the co-culture assay; also called cell surface mouse latent TGF-beta 1; latent TGF-beta 1 on Ba/F3 cells

[5] = molecular target: T2, mouse cell surface latent TGF-beta 1; experiment: FACS on Ba/F3 cells that endogenously express latent TGF-beta 1 forming LLC
[6] = molecular target: T2, mouse cell surface latent TGF-beta 1; experiment: FACS on Ba/F3 cells, PE-labelled secondary antibody, MFI
Experimental: as §1

[7] = molecular target: recombinant mouse latent TGF-beta 1 (Flag-tagged mouse latent TGF-beta 1) (mouse) (UniProt P04202); experiment: Biacore tandem blocking assay, FLAG-tagged mouse latent TGF-beta 1 captured on anti-FLAG M2, antibody 500 nM

Measured: binding

B1: TBA1300 (antibody, human IgG1, kappa, V domains shown)
VH: QEQLKESGGGLVTPGGTLTLTCTVSGFSLSNYDMSWVRQAPGKGLEWIGAIYTAGTTSYASWAKGRFTISKTSTTVDLKITSPTTEDTATYFCARGGSSFFYYAAHNIWGPGTLVTVSS
VL: AYDMTQTPASVEAAVGGTVTIKCQASQSIGSNLAWYQQKPGQPPKLLIYDASKLPSGVPSRFKGSGSGTEFTLTISDLECDDAATYYCQQYYTTSDVDNTFGGGTKVEIKR
notes: also called TBA1300ff-F1332m
binds: [1] | [2] | [3]

B2: TBS182 (antibody, V domains shown)
VH: QSLEESGGDLVKPGASLTLTCTASGFSFSRSYYMCWVRQAPGKGLEWIACIYGGSSGSTWYASWAKGRFTISKTSSTTVTLQMTSLTAADTATYFCARDIGNYYRWWGPGTLVTVSS
VL: AVVLTQTTSPVSAPVGGTVTIKCQASKNIYSLLAWYQQKPGQPPKLLIYDASTLASGVPSRFKGSGSGTQFTLTISDLECADAATYYCQSYYDSSSSADLSTFGGGTEVVVKR
binds: [4] | [5] | [6] | [7]

B3: TBS139 (antibody, mouse IgG1, kappa, V domains shown)
VH: QSLEESGGDLVKPGASLTLTCTASGFSFSSYWMSWVRQAPGKGLEYIGMISIIGTTYYASWAKGRFTISKTSSTTVTLQVTSLTAADTATYFCARGYVSNSNYWGLWGPGTLVTVSS
VL: AYDMTQTPASVEVAVGGTVTIKCQASQNIGSNLAWYQQKPGQPPKLLIYYASDLASGVPSRFKGSGSGTRYTLTISGVQCDDAATYYCQQYWSSSNVDNTFGGGTEVVVKR
binds: [4] | [5] | [6] | [7]
